Data from article PMC7053999, “ParB spreading on DNA requires cytidine triphosphate in vitro” (eLife, 2020).
Numbering of substitutions follows the chain as printed. The exact form of at least one protein or probe is not confirmed. For some assays here: A weaker result is weaker than the reference pair of the same experiment. For some assays here: Where a protein sequence is shown, tags need not be part of it. For some assays here: At least one verdict was read from the data and is not stated in words by the source. For some assays here: The direction of at least one scale is not stated here.

Key:
Test in all cases: BLI
[1] = biological target: T1, Caulobacter ParB-His6 (WT) (Caulobacter crescentus) (UniProt B8GW30); conditions: BLI at 22 C: 100 mM Tris-HCl pH 8.0, 100 mM NaCl, 1 mM MgCl2, 0.005% Tween 20, 1 uM protein dimer, recombinant protein, protein details: C-terminal His6
T1 sequence (looked up, limits assumed): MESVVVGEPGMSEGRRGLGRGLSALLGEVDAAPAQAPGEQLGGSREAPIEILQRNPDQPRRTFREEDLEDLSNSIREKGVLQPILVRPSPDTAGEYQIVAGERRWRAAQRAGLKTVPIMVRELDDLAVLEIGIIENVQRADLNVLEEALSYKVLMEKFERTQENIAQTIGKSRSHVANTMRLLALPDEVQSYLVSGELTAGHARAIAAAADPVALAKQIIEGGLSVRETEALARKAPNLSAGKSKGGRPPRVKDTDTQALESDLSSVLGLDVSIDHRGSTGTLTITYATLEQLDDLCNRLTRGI

[2] = tested on: Zymomonas mobilis ParB (Zymomonas mobilis); conditions: 0.01 mM CTP (enhanced), Mg2+; BLI at 22 C: 100 mM Tris-HCl pH 8.0, 100 mM NaCl, 1 mM MgCl2, 0.005% Tween 20; 1 uM protein dimer; recombinant protein; protein details: N-terminal His6-MBP; label: biotin at both 5' ends
[3] = tested on: Dechloromonas ParB (Dechloromonas); conditions: 1 mM CTP (enhanced), Mg2+; BLI at 22 C: 100 mM Tris-HCl pH 8.0, 100 mM NaCl, 1 mM MgCl2, 0.005% Tween 20; 1 uM protein dimer; recombinant protein; protein details: N-terminal His6-MBP; label: biotin at both 5' ends
[4] = tested on: Rhodobacter ParB (Rhodobacter); conditions: 1 mM CTP (enhanced), Mg2+; BLI at 22 C: 100 mM Tris-HCl pH 8.0, 100 mM NaCl, 1 mM MgCl2, 0.005% Tween 20; 1 uM protein dimer; recombinant protein; protein details: N-terminal His6-MBP; label: biotin at both 5' ends
[5] = tested on: Sinorhizobium ParB (Sinorhizobium); conditions: 1 mM CTP (enhanced), Mg2+; BLI at 22 C: 100 mM Tris-HCl pH 8.0, 100 mM NaCl, 1 mM MgCl2, 0.005% Tween 20; 1 uM protein dimer; recombinant protein; protein details: N-terminal His6-MBP; label: biotin at both 5' ends
Thermus ParB (Thermus) = conditions: 1 mM CTP (enhanced), Mg2+; BLI at 22 C: 100 mM Tris-HCl pH 8.0, 100 mM NaCl, 1 mM MgCl2, 0.005% Tween 20; 1 uM protein dimer; recombinant protein; protein details: N-terminal His6-MBP; label: biotin at both 5' ends
[6] = biological target: T2, Caulobacter ParB-His6 (R104A) (Caulobacter crescentus) (UniProt B8GW30); conditions: BLI at 22 C: 100 mM Tris-HCl pH 8.0, 100 mM NaCl, 1 mM MgCl2, 0.005% Tween 20, 1 uM protein dimer, recombinant protein, protein details: C-terminal His6, label: biotin at both 5' ends
T2 sequence (looked up, limits assumed): T1 sequence (looked up, limits assumed) with R104A

[7] = tested on: Psychrobacter ParB (Psychrobacter); conditions: 1 mM CTP (enhanced), Mg2+; BLI at 22 C: 100 mM Tris-HCl pH 8.0, 100 mM NaCl, 1 mM MgCl2, 0.005% Tween 20; 1 uM protein dimer; recombinant protein; protein details: N-terminal His6-MBP; label: biotin at both 5' ends

CGCCAGGGTTTTCCCAGTCACGACGTTGTAAAACGACGGCCAGAATTCGCAACGTGTGTTTCACGTGAAACAGCCTTGAACTGATAACGACTCTATCATTGATAGAGTGTTCTCTCCACGGGATCCCCAGGCATGCAAGCTTGGCGTAATCATGGTCATAGCTGTTTCCT (double strand) [170 bp parS-tetO closed DNA]
binding result ([1]; 1 mM CTP + 1 uM TetR roadblock, regained with 3 uM ahTc, label: biotin at both 5' ends): binds more weakly

CGCCAGGGTTTTCCCAGTCACGACGTTGTAAAACGACGGCCAGTGAATTCGAGCTCGGTACCCGCAGGAGGACGTAGGGTAGGGGGATGTTTCACGTGAAACAGGGGATCCTCTAGAGTCGACCTGCAGGCATGCAAGCTTGGCGTAATCATGGTCATAGCTGTTTCCT (double strand) [169 bp parS closed DNA]
binding result [2]: binds
binding result [3]: binds
binding result [4]: binds
binding result [5]: binds
binding result (Thermus ParB (Thermus)): binds
binding result ([6]; 1 mM CTP, Mg2+): binds more weakly
binding result ([6]; no NTP, described as nucleation-competent): binds
binding result [7]: binds

GGGATGTTTCACGTGAAACA (double strand) [20 bp parS]
binding result ([1]; 1 mM CTP, Mg2+, label: 5' biotin on strand 1): binds more weakly
binding signal (fold faster dissociation vs buffer only) ([1]; dissociation in 1 mM CTP, Mg2+, label: 5' biotin on strand 1): 7
